Results taken from the supplement of paper PMC12823440, “Inhibitors supercharge kinase turnover through native proteolytic circuits” (Nature, 2025).
The list shows a part of the results. Hit calls seldom repeat between salt and free forms of one compound.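 Kinases were expressed as nanoluciferase fusions in K562 cells and luminescence was read every 4 h between 2 and 18 h as percent of control, DMSO set to 100% and a positive control to 0%. A time point counts as decreased when the signal drops significantly (2 sigma). The hit call is the authors' own, does not follow from the count of time points alone, and its rule is not shown.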

The chains behind the UniProt entries cited, without tags or fusion partners. Where a name states a change or a piece, a line headed by the entry shows the natural chain unless it says otherwise.
UniProt Q01974, whole entry: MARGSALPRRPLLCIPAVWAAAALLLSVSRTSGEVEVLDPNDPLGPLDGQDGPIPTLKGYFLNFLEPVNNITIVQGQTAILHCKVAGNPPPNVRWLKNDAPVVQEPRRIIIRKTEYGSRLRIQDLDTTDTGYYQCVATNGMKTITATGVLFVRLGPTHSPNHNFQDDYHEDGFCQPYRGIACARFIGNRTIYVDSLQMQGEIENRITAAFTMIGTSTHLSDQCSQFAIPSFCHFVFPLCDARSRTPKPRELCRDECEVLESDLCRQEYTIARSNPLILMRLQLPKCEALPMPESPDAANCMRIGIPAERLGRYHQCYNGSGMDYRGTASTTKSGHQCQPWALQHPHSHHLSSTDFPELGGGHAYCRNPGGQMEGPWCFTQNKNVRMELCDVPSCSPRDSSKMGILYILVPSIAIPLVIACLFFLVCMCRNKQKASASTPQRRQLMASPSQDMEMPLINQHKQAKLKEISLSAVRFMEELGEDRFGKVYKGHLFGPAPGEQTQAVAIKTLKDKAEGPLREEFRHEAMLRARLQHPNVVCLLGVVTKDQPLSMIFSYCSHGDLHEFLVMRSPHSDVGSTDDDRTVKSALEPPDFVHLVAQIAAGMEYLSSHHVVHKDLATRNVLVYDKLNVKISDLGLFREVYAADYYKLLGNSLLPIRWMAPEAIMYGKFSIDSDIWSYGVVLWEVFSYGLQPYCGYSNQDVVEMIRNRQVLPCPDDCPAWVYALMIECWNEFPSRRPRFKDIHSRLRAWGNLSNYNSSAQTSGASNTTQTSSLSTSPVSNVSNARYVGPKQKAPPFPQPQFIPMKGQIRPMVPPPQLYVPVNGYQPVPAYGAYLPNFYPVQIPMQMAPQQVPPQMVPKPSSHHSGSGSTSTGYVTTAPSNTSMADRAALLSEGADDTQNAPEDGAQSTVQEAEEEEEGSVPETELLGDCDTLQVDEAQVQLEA
UniProt Q15418, whole entry: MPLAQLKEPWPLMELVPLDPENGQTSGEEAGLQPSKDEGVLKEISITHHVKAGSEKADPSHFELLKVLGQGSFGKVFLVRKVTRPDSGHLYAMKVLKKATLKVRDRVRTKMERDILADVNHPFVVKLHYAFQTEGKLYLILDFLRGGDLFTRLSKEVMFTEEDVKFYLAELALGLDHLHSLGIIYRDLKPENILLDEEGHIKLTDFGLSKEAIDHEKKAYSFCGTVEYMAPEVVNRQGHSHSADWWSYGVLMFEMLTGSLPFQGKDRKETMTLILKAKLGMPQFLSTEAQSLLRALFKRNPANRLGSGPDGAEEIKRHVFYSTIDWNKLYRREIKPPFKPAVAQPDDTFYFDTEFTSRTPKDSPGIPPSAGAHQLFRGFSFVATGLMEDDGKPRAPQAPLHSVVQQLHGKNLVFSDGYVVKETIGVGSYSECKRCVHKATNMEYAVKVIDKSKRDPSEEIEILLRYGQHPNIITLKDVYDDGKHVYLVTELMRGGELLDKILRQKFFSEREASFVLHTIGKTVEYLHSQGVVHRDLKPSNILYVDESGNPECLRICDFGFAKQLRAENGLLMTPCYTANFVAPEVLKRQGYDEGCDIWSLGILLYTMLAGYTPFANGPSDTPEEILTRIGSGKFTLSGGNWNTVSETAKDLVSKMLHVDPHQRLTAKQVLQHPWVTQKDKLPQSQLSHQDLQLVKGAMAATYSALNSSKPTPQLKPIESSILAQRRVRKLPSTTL
UniProt Q9NYA1, whole entry: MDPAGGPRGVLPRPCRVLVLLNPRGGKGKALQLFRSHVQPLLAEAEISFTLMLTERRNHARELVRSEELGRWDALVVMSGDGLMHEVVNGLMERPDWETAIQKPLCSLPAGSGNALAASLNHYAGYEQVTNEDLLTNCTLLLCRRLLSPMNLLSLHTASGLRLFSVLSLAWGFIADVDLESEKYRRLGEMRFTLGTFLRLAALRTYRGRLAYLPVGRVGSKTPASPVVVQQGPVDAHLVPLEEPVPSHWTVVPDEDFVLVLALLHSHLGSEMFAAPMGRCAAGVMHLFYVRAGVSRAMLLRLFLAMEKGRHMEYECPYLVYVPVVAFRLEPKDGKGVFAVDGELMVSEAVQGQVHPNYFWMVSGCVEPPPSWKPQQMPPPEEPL
UniProt Q9Y6E0: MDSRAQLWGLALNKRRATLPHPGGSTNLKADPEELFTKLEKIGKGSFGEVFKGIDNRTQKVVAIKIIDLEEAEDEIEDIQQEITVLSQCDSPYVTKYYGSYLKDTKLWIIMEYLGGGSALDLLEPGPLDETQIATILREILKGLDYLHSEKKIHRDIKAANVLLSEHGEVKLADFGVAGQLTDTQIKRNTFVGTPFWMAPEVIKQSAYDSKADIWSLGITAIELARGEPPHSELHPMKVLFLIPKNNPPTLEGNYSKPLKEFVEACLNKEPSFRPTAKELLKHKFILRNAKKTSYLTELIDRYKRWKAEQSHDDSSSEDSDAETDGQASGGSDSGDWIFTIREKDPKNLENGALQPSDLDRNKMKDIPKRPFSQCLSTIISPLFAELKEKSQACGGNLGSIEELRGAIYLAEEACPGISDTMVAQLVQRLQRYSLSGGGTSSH
UniProt Q15208: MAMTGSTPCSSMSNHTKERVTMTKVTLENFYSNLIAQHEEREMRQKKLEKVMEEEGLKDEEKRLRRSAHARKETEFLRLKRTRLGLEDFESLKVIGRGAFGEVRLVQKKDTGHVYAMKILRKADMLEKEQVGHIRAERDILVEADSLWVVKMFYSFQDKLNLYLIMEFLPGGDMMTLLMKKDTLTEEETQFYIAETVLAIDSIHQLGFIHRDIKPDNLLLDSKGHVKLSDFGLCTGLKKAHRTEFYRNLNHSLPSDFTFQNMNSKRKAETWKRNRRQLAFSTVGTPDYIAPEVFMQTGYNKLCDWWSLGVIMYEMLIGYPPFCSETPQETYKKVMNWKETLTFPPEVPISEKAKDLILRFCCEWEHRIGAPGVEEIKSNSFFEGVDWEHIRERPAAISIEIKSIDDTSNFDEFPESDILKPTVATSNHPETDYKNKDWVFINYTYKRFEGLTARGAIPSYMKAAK
UniProt P42680: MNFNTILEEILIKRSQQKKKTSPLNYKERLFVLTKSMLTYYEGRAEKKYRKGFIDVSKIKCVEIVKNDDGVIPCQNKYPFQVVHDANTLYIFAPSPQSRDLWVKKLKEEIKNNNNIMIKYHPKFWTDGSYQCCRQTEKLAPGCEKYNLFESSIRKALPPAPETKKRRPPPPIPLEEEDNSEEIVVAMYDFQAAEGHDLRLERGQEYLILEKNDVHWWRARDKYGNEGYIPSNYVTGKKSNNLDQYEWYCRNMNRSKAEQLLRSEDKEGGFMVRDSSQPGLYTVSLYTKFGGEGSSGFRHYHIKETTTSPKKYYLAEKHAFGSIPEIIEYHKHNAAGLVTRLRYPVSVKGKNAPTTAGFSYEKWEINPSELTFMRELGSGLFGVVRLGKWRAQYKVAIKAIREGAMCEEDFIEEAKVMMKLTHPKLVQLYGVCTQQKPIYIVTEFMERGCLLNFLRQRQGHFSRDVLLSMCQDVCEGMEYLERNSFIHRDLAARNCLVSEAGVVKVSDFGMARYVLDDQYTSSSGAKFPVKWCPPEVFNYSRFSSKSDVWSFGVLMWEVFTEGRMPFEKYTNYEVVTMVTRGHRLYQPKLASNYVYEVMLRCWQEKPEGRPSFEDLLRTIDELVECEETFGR
UniProt P29597: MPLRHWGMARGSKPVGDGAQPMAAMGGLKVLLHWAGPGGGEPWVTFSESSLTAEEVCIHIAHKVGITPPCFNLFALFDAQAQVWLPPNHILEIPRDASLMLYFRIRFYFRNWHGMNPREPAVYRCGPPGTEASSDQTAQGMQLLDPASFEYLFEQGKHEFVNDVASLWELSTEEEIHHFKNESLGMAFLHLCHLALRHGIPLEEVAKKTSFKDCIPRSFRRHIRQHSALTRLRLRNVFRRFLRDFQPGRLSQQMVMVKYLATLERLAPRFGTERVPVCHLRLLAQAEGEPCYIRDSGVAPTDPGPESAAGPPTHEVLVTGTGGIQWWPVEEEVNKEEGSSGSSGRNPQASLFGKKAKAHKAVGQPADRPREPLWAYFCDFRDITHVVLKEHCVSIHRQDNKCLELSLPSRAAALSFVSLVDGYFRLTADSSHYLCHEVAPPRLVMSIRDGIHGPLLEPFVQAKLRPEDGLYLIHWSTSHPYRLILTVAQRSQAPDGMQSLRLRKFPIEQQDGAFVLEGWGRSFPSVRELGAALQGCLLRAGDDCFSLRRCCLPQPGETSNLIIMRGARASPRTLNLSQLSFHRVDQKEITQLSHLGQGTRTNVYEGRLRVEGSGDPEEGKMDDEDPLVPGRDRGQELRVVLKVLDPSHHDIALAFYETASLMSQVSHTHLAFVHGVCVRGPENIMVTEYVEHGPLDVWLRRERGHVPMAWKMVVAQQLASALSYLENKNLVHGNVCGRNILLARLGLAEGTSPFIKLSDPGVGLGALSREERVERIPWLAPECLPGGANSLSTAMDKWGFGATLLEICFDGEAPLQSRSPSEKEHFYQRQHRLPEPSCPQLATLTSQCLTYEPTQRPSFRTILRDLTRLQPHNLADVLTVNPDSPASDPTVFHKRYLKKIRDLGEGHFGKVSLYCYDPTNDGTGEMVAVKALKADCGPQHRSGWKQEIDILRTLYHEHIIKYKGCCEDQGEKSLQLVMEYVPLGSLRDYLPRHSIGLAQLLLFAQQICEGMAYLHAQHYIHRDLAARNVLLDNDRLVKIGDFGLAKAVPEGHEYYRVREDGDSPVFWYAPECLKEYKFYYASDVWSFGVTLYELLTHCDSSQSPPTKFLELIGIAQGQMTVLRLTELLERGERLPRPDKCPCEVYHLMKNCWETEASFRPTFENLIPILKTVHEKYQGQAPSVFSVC
UniProt Q6PHR2: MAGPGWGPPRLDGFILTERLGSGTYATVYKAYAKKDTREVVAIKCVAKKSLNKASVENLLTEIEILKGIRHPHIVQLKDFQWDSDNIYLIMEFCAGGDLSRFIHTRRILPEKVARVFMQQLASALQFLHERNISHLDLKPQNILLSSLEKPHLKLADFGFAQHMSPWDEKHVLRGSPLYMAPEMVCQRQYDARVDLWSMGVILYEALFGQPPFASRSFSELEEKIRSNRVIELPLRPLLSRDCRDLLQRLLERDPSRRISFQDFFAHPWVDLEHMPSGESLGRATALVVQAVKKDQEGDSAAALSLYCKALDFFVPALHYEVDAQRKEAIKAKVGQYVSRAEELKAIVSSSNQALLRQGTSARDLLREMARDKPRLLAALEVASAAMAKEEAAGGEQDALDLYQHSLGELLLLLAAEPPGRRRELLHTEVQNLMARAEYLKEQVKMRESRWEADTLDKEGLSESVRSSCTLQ
UniProt P07947, whole entry, looked up: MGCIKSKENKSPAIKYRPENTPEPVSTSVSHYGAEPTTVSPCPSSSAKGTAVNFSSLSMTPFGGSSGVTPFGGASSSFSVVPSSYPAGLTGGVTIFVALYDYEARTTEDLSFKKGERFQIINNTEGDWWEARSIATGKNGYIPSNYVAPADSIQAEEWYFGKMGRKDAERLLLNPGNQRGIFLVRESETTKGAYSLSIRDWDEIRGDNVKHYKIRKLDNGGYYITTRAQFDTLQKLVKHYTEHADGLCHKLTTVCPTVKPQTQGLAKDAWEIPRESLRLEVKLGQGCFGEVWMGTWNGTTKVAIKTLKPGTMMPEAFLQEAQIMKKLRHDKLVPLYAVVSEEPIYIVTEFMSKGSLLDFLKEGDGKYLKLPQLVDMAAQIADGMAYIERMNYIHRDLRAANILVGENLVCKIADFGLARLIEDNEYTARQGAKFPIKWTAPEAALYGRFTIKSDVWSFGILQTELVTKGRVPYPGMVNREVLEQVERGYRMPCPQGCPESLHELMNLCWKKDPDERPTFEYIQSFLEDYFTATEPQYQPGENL
UniProt P11802: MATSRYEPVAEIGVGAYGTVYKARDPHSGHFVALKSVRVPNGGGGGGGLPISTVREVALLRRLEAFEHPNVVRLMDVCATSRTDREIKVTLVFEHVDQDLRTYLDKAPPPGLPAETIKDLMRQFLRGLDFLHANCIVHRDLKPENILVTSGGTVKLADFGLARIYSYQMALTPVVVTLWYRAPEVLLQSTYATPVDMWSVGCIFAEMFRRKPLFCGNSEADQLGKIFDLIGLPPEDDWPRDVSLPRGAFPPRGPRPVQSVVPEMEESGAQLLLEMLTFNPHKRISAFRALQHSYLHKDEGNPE
UniProt P50613: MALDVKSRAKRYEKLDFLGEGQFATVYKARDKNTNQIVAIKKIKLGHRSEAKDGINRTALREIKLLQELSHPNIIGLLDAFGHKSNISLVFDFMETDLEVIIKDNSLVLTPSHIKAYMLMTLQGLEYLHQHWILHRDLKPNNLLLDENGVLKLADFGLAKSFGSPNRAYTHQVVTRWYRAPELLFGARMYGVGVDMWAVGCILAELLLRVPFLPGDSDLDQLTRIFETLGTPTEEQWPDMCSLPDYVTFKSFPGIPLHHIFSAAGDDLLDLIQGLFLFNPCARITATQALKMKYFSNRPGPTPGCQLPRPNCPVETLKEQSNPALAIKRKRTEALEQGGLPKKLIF

Key:
Details in all cases: K562; 2-18 h
[1] = target: ROR2 (UniProt Q01974); experiment: number of time points (of 5) at which kinase-Nluc abundance scored as decreased, DMSO-normalised (count); higher = more persistent destabilization
[2] = target: RPS6KA1 (UniProt Q15418); experiment: as above
[3] = target: SPHK1 (UniProt Q9NYA1); experiment: as above
[4] = target: SRC (UniProt P12931); experiment: as above
[5] = target: STK24 (UniProt Q9Y6E0); experiment: as above
[6] = target: STK38 (UniProt Q15208); experiment: as above
[7] = target: SYK (UniProt P43405); experiment: as above
[8] = target: TEC (UniProt P42680); experiment: as above
[9] = target: TYK2 (UniProt P29597); experiment: as above
[10] = target: ULK3 (UniProt Q6PHR2); experiment: as above
[11] = target: YES1 (UniProt P07947); experiment: as above
[12] = target: ZAK (UniProt Q9NYL2); experiment: as above
[13] = target: ZAP70 (UniProt P43403); experiment: as above
[14] = target: CDK4 (UniProt P11802); experiment: number of time points (of 4; 2 h point missing) at which kinase-Nluc abundance scored as decreased, DMSO-normalised (count); higher = more persistent destabilization
[15] = target: CDK7 (UniProt P50613); experiment: as above
[16] = target: CDK9 (UniProt P50750); experiment: as above

| SMILES | number of time points [1] | number of time points [2] | number of time points [3] | number of time points [4] | number of time points [5] | number of time points [6] | number of time points [7] | number of time points [8] | number of time points [9] | number of time points [10] | number of time points [11] | number of time points [12] | number of time points [13] | number of time points [14] | number of time points [15] | number of time points [16] |
| --- | --- | --- | --- | --- | --- | --- | --- | --- | --- | --- | --- | --- | --- | --- | --- | --- |
| COc1ccc2cc1Oc1ccc(cc1)C[C@H]1c3cc(c(OC)cc3CCN1C)Oc1c(O)c(OC)cc3c1[C@H](C2)N(C)CC3 [Fangchinoline] (2.5 µM) | 0 | 0 | 0 | 0 | 0 | 0 | 0 | 0 | 0 | 0 | 0 | 0 | 0 | 0 | 0 | 0 |
| N#Cc1cc(-c2ccnc(Nc3ccc(N4CCOCC4)cc3)n2)ccc1OC1CCOCC1 (10 µM) | 0 | 0 | 0 | 0 | 0 | 0 | 0 | 0 | 0 | 0 | 0 | 0 | 0 | 0 | 0 | 0 |
| Nc1ccc(-c2nc3ccc(-c4nc5ccc(N)cc5[nH]4)cc3[nH]2)cc1 (10 µM) | 0 | 0 | 0 | 0 | 0 | 0 | 0 | 0 | 0 | 0 | 0 | 0 | 0 | 0 | 0 | 0 |
| COC(=O)N1CCN(C2CCC(Nc3nc(Nc4cnn(C)c4)nc4ccc(CC#N)nc34)CC2)CC1 (configuration not stated) (10 µM) | 0 | 0 | 0 | 0 | 0 | 0 | 0 | 0 | 0 | 0 | 0 | 0 | 0 | 0 | 0 | 0 |
| COc1cc2nc(NC3CC3)nc(NC3CCN(C(C)C)CC3)c2cc1OC (10 µM) | 0 | 0 | 0 | 0 | 0 | 0 | 0 | 0 | 0 | 2 | 0 | 0 | 0 | 0 | 0 | 0 |
| CC(C)(C)S(=O)(=O)c1cc2c(Nc3ccc4scnc4c3)ncnc2cc1OCCOP(=O)(O)O (2 µM) | 0 | 0 | 0 | 0 | 0 | 0 | 0 | 0 | 0 | 0 | 0 | 0 | 0 | 0 | 0 | 0 |
| Cc1nc(Nc2cnn(C3CCNCC3)c2)nc2c1N(C)C(=O)c1cc3ccccc3cc1N2C (2.5 µM) | 0 | 0 | 0 | 0 | 0 | 0 | 0 | 0 | 0 | 0 | 0 | 0 | 0 | 0 | 0 | 0 |
